Among the data in doi:10.1101/2025.05.20.655083 are binding values, retold here.

The chains behind the UniProt entries cited, without tags or fusion partners.
UniProt Q14974: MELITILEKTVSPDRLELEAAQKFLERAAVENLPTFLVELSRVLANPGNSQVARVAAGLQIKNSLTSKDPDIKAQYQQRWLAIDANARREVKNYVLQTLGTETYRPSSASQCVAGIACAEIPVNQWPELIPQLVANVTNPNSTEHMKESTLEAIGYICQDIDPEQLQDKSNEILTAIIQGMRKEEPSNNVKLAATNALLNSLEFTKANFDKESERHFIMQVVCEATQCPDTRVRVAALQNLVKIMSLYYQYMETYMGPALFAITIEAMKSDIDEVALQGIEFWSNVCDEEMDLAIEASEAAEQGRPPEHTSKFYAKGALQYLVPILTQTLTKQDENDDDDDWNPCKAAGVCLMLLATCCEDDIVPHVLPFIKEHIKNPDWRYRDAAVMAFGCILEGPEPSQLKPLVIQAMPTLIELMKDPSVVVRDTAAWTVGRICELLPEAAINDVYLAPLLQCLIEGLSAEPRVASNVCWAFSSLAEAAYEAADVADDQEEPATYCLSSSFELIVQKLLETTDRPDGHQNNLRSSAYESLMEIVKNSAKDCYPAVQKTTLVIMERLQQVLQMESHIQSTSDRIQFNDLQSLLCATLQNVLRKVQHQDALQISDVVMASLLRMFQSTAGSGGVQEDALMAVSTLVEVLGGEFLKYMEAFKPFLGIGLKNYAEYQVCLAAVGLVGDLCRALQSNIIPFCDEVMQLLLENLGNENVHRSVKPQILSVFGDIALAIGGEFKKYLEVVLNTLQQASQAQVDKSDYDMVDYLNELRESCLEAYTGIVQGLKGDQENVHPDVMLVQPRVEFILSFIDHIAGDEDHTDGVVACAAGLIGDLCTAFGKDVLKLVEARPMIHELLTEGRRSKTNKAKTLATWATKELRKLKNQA
UniProt Q92973: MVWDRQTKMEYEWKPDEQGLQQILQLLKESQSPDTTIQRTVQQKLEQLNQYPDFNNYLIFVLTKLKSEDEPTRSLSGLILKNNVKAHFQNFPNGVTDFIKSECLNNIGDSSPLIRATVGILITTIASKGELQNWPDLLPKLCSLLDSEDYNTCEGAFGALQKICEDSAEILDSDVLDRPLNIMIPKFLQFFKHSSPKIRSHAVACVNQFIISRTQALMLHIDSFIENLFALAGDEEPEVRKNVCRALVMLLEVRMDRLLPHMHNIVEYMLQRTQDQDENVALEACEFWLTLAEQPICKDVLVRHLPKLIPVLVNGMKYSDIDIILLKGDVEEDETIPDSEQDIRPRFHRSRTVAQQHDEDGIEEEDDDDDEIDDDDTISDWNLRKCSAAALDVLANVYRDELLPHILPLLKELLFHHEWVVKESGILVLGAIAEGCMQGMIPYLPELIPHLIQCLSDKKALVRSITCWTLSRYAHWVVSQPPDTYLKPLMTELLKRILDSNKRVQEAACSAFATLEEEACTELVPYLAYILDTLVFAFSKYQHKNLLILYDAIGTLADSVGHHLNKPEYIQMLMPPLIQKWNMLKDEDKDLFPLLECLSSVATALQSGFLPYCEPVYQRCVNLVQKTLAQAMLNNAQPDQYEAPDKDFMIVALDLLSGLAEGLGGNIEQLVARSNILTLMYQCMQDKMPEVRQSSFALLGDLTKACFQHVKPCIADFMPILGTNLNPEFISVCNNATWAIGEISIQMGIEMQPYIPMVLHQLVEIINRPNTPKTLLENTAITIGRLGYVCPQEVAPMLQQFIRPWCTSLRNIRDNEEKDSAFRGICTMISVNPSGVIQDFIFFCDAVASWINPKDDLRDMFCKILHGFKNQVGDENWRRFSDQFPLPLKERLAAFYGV

Where two headings read alike, the source gives them in different places. These are yes or no findings as the source states them, for the method shown. Some binding calls cover weakened binding; strength is not graded here.

The target of assay [1] is BSB PyV-LTA;NLS peptide (Black Sea Bass polyomavirus large tumor antigen residues 660-683) (Black Sea Bass polyomavirus). Description: fluorescence polarisation. (Fluorescence polarisation rises when a labelled molecule tumbles more slowly, as on binding a larger partner.)
Substrate in assay [2]: BSB PyV-LTA;NLS peptide (Black Sea Bass polyomavirus large tumor antigen residues 660-683) (Black Sea Bass polyomavirus)
The experiment in a line: fluorescence polarisation. This is another data set of the same source.

On to “human importin β1 (from UniProt Q14974 1-876)”, for which the binding entry in assay [1] was “binds weakly”.
Still for that read-out and setting: then “human importin β2 (from UniProt Q92973 1-898)”, with “binds weakly”.

B1: human importin β3 (protein, UniProt O00410 1-1097)
chain: MAAAAAEQQQFYLLLGNLLSPDNVVRKQAEETYENIPGQSKITFLLQAIRNTTAAEEARQMAAVLLRRLLSSAFDEVYPALPSDVQTAIKSELLMIIQMETQSSMRKKVCDIAAELARNLIDEDGNNQWPEGLKFLFDSVSSQNVGLREAALHIFWNFPGIFGNQQQHYLDVIKRMLVQCMQDQEHPSIRTLSARATAAFILANEHNVALFKHFADLLPGFLQAVNDSCYQNDDSVLKSLVEIADTVPKYLRPHLEATLQLSLKLCGDTSLNNMQRQLALEVIVTLSETAAAMLRKHTNIVAQTIPQMLAMMVDLEEDEDWANADELEDDDFDSNAVAGESALDRMACGLGGKLVLPMIKEHIMQMLQNPDWKYRHAGLMALSAIGEGCHQQMEGILNEIVNFVLLFLQDPHPRVRYAACNAVGQMATDFAPGFQKKFHEKVIAALLQTMEDQGNQRVQAHAAAALINFTEDCPKSLLIPYLDNLVKHLHSIMVLKLQELIQKGTKLVLEQVVTSIASVADTAEEKFVPYYDLFMPSLKHIVENAVQKELRLLRGKTIECISLIGLAVGKEKFMQDASDVMQLLLKTQTDFNDMEDDDPQISYMISAWARMCKILGKEFQQYLPVVMGPLMKTASIKPEVALLDTQDMENMSDDDGWEFVNLGDQQSFGIKTAGLEEKSTACQMLVCYAKELKEGFVEYTEQVVKLMVPLLKFYFHDGVRVAAAESMPLLLECARVRGPEYLTQMWHFMCDALIKAIGTEPDSDVLSEIMHSFAKCIEVMGDGCLNNEHFEELGGILKAKLEEHFKNQELRQVKRQDEDYDEQVEESLQDEDDNDVYILTKVSDILHSIFSSYKEKVLPWFEQLLPLIVNLICPHRPWPDRQWGLCIFDDVIEHCSPASFKYAEYFLRPMLQYVCDNSPEVRQAAAYGLGVMAQYGGDNYRPFCTEALPLLVRVIQSADSKTKENVNATENCISAVGKIMKFKPDCVNVEEVLPHWLSWLPLHEDKEEAVQTFNYLCDLIESNHPIVLGPNNTNLPKIFSIIAEGEMHEAIKHEDPCAKRLANVVRQVQTSGGLWTECIAQLSPEQQAAIQELLNSA
B1: the binding result in assay [2] is “binds weakly”.
